Data: PMC10821278
Results are given in words; binding and its absence hold for the method and conditions named. Some binding calls cover weakened binding; strength is not graded here.

The chains behind the UniProt entries cited, without tags or fusion partners. Residues count along the entry.
UniProt P21530, residues 690-1062: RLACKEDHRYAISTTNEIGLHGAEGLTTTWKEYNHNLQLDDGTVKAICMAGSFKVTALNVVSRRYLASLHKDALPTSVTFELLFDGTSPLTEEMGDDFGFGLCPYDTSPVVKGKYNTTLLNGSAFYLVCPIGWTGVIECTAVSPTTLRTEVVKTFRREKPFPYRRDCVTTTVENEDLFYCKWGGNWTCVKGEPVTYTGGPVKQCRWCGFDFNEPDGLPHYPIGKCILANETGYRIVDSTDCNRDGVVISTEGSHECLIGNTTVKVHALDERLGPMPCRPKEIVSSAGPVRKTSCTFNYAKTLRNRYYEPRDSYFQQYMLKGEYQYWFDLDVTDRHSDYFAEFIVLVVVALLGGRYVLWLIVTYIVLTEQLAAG
UniProt Q45FY6: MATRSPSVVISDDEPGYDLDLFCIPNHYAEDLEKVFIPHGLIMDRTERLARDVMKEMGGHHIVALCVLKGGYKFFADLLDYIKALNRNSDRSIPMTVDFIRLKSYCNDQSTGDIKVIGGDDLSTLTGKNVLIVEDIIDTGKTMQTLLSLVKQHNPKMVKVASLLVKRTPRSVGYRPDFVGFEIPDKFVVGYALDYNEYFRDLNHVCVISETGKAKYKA

Target: CSFV E2 fused to the Gal4 binding domain (E2-BD) (classical swine fever virus) (UniProt P21530)
Test: two-hybrid

swine hypoxanthine phosphoribosyl transferase 1 (HPRT1) fused to the Gal4 activation domain (HPRT1-AD) (from UniProt Q45FY6 1-218)
binding: binds
